Reference: patent publication US20260201058A1
No constants are given. Whether binding was seen depends on the method and setting. Some binding calls cover weakened binding; strength is not graded here.

Amino acid sequences for entries named in this document (tags omitted).
UniProt Q9EP73: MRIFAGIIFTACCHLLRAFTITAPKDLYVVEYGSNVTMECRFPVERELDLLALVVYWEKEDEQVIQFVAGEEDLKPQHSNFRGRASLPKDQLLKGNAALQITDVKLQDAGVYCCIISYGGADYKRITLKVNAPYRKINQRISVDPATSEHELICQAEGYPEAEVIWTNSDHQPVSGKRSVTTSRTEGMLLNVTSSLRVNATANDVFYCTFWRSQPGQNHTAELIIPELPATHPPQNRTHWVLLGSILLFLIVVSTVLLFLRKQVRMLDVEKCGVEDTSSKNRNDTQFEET

Target: mouse PD-L1 protein (ACRO, PD1-M5251) (mouse) (UniProt Q9EP73)
Experiment: Carterra chip kinetics

binding: binds
B1: 4A7 nanobody (VHH)
VHH: EVQLVESGGGLVQAGDSLRLGCAASGRTFSTNVMGWFRQAPGKEREFVSAISRAGSTYSADSVKGRFTISRDNAENTVYLQMNSLKPEDTAVYYCAAGSSPTAIFGKSGMDYWGKGTLVTVSS
